Measured values: PMC11804915, “Single-stranded DNA binding to the transcription factor PafBC triggers the mycobacterial DNA damage response”
For at least one entry, the source does not settle the construct or the ends of the probe. Weaker means in comparison with the reference protein, sequence or condition of that experiment.

System: PafBC, PafC WCX variant W250A,Y254A,Y255A (Mycobacterium smegmatis)
Test: EMSA
Details: ssDNA EMSA: 22.5 mM Hepes-KOH pH 7.8, 135 mM NaCl, 20 mM KCl, 5 mM MgCl2, 1 mM DTT, 37 C 15 min, 10 nM DNA, 0-16 uM PafBC; recombinant protein; protein details: C-terminal Strep on PafC; label: FAM; single-stranded DNA

TTTTTTTTTTTTTTTTTTTT [dT20 ssDNA]: binds more weakly.
